PubChem BioAssay AID493246 – Drosophila RNAi Screening Center, 2011
The screen tested about 21,000 reagents; this is an unselected part of those with a known target gene and a result. Of all reagents, 429 (2%) are marked active. 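Values are raw and not normalised between plates; calls rest on per-plate z-scores that were not deposited.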 Entries without a mark were called inactive. Names joined by + are all predicted targets of the reagent. The record does not give: the amount of reagent, the time to read-out.

Assay: 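Identify essential fly genes by loss of cell viability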 (primary screen)
Cells: Drosophila Kc and S2R+ cells
Reagent: long dsRNA against Drosophila genes
Measurement: 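Raw, unnormalised count of remaining cells in each well; per-plate z-scores of cell number underlie the calls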
Scale: Kc cell number and S2R+ cell number: higher = more cells remaining
Rule for the call: 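Active when the per-plate z-score of cell number is 3 or more in the direction of fewer cells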

gene knocked down | DRSC id | Kc cell number, rep 1 | Kc cell number, rep 2 | S2R+ cell number, rep 1 | S2R+ cell number, rep 2
mil (milkah) | DRSC15696 | 1.53e6 | 1.60e6 | 9.78e5 | 1.10e6
Fas2 (Fasciclin 2) | DRSC17308 | 1.32e6 | 1.41e6 | 9.64e5 | 1.01e6
Fas2 (Fasciclin 2) | DRSC17309 | 1.11e6 | 1.38e6 | 1.09e6 | 1.05e6
Fas2 (Fasciclin 2) | DRSC18664 | 5.90e5 | – | 8.71e5 | –
CG9747 | DRSC16554 | 1.38e6 | 1.30e6 | 9.99e5 | 1.16e6
RagA-B (Ras-related GTP binding A/B) | DRSC14450 | 1.62e6 | 1.74e6 | 1.42e6 | 1.48e6
ERp44 (Endoplasmic reticulum protein 44) | DRSC20215 | 6.78e5 | – | 9.54e5 | –
lncRNA:sphinx (long non-coding RNA:sphinx) | DRSC17199 | 1.35e6 | 1.36e6 | 8.68e5 | 1.00e6
InR (Insulin-like receptor) | DRSC16717 | 1.54e6 | 1.49e6 | 1.12e6 | 1.17e6
mof (males absent on the first) | DRSC18795 | 1.52e6 | 1.59e6 | 1.07e6 | 1.15e6
cyp33 + CG34194 | DRSC05666 | 4.30e5 | – | 6.96e5 | –
pAbp (poly(A) binding protein) | DRSC07659 | 8.23e5 (active) | 9.04e5 | 5.78e5 | 6.71e5
Obp56d (Odorant-binding protein 56d) | DRSC06064 | 1.53e6 | 1.61e6 | 1.26e6 | 1.36e6
Spt20 | DRSC10280 | 1.20e6 (active) | 1.25e6 | 7.70e5 | 7.97e5
CG7634 | DRSC11843 | 1.33e6 | 1.38e6 | 1.31e6 | 1.41e6
MsR1 (Myosuppressin receptor 1) | DRSC08615 | 1.42e6 | 1.49e6 | 9.96e5 | 1.26e6
ord (orientation disruptor) | DRSC04706 | 1.60e6 | 1.65e6 | 1.29e6 | 1.34e6
Trmt6 (tRNA methyltransferase 6 non-catalytic subunit) | DRSC03272 | 1.55e6 | 1.47e6 | 1.10e6 | 1.27e6
glob1 (globin 1) | DRSC16959 | 1.64e6 | 1.68e6 | 1.25e6 | 1.33e6
dock (dreadlocks) | DRSC00812 | 1.19e6 | 1.39e6 | 1.07e6 | 1.11e6
Lamtor1 (Late endosomal/lysosomal adaptor, MAPK and MTOR activator 1) | DRSC10183 | 1.32e6 | 1.40e6 | 1.36e6 | 1.38e6
inaF-B | DRSC18903 | 1.23e6 | 1.46e6 | 1.06e6 | 1.05e6
kairos | DRSC19972 | 1.62e6 | 1.61e6 | 1.08e6 | 1.21e6
CG10011 | DRSC14174 | 5.68e5 | – | 7.24e5 | –
SmydA-8 (SET and MYND domain containing, arthropod-specific, member 8) | DRSC18797 | 1.56e6 | 1.61e6 | 1.07e6 | 1.20e6
CG32444 | DRSC11677 | 1.63e6 | 1.66e6 | 1.15e6 | 1.23e6
Tak1 (TGF-beta activated kinase 1) | DRSC20390 | 1.28e6 | 1.60e6 | 1.14e6 | 1.22e6
Tak1 (TGF-beta activated kinase 1) | DRSC20561 | 1.63e6 | 1.65e6 | 1.09e6 | 1.23e6
Tak1 (TGF-beta activated kinase 1) | DRSC20562 | 1.83e6 | 1.88e6 | 1.16e6 | 1.33e6
spn-F | DRSC14475 | 4.11e5 | – | 6.54e5 | –
Arpc4 (Actin-related protein 2/3 complex, subunit 4) | DRSC02917 | 1.51e6 | 1.46e6 | 1.15e6 | 1.32e6
Ccs (Copper chaperone for superoxide dismutase) | DRSC06692 | 1.55e6 | 1.55e6 | 1.27e6 | 1.25e6
UQCR-C1 (Ubiquinol-cytochrome c reductase core protein 1) | DRSC15508 | 1.50e6 | 1.52e6 | 8.15e5 | 9.64e5
CG15537 | DRSC15073 | 1.71e6 | 1.69e6 | 1.09e6 | 1.15e6
ab (abrupt) | DRSC03478 | 1.35e6 | 1.51e6 | 8.39e5 | 9.64e5
CG17097 | DRSC02569 | 1.70e6 | 1.61e6 | 1.22e6 | 1.39e6
CG13800 (retired record) | DRSC08334 | 1.28e6 | 1.27e6 | 1.01e6 | 1.26e6
Lint-O (L(3)mbt interactor in ovarian somatic cells) | DRSC18468 | 1.66e6 | 1.62e6 | 1.10e6 | 1.20e6
obst-G (obstructor-G) | DRSC11103 | 1.37e6 | 1.41e6 | 1.15e6 | 1.28e6
CG14280 | DRSC14761 | 1.42e6 | 1.48e6 | 9.69e5 | 1.03e6
Uch-L5R (Uch-L5-related) | DRSC19825 | 1.49e6 | 1.47e6 | 9.55e5 | 1.00e6
CG7568 | DRSC16259 | 1.47e6 | 1.47e6 | 1.01e6 | 1.09e6
Sec24AB (Secretory 24AB) | DRSC06478 | 1.61e6 | 1.64e6 | 1.09e6 | 1.18e6
sncRNA:430e + His2A:CG33859 + His2A:CG33817 + 37 more | DRSC21264 | 1.54e6 | 1.52e6 | 8.97e5 | 9.82e5
CG14095 | DRSC10098 | 1.38e6 | 1.65e6 | 1.25e6 | 1.30e6
CCAP-R (Crustacean cardioactive peptide receptor) | DRSC14891 | 1.44e6 | 1.45e6 | 9.86e5 | 1.07e6
CCAP-R (Crustacean cardioactive peptide receptor) | DRSC15967 | 1.52e6 | 1.50e6 | 1.01e6 | 1.08e6
CG14218 | DRSC19575 | 1.46e6 | 1.64e6 | 1.04e6 | 1.04e6
Rbf (Retinoblastoma-family protein) | DRSC18704 | 5.98e5 | – | 9.86e5 | –
Nf-YC (Nuclear factor Y-box C) | DRSC18272 | 3.85e5 (active) | 4.66e5 | 3.98e5 | 5.20e5
CG13428 | DRSC06390 | 1.78e6 | 1.87e6 | 1.35e6 | 1.61e6
CG5953 | DRSC01546 | 1.36e6 | 1.36e6 | 9.39e5 | 1.13e6
CG5953 | DRSC02914 | 1.17e6 (active) | 1.29e6 | 7.97e5 | 9.81e5
CG7275 | DRSC10796 | 1.42e6 | 1.50e6 | 1.19e6 | 1.27e6
Osi13 (Osiris 13) | DRSC12281 | 1.58e6 | 1.78e6 | 1.28e6 | 1.48e6
CG5592 | DRSC10524 | 1.70e6 | 1.55e6 | 1.04e6 | 1.15e6
osi (orsai) | DRSC02931 | 1.63e6 | 1.80e6 | 1.18e6 | 1.31e6
SLIRP2 (SRA stem-loop interacting RNA binding protein 2) | DRSC16363 | 1.41e6 | 1.53e6 | 1.22e6 | 1.30e6
CG7049 | DRSC08587 | 1.40e6 | 1.47e6 | 1.22e6 | 1.22e6

Hits, of those listed so far:
gene knocked down | DRSC id | Kc cell number, rep 1 | Kc cell number, rep 2 | S2R+ cell number, rep 1 | S2R+ cell number, rep 2
pAbp (poly(A) binding protein) | DRSC07659 | 8.23e5 (active) | 9.04e5 | 5.78e5 | 6.71e5
Spt20 | DRSC10280 | 1.20e6 (active) | 1.25e6 | 7.70e5 | 7.97e5
Nf-YC (Nuclear factor Y-box C) | DRSC18272 | 3.85e5 (active) | 4.66e5 | 3.98e5 | 5.20e5
CG5953 | DRSC02914 | 1.17e6 (active) | 1.29e6 | 7.97e5 | 9.81e5
